No constants are given. Whether binding was seen depends on the method and setting. Some entries that bind do so weakly or less than the wild type.
B1: 5H2/5K3 (antibody, V domains shown)
VH: QSVKESEGGLFKPTDTLTLTCTVSGFSLYSGAINWVRQAPGEGLQYIGWISDVGSAYYASWAKSRSTITRNTNENTVTLKMTSLTAADTATYFCARGDGSSGNYWVTDIWGQGTLVTVSS
VL: AVVLTQTASPVSAPVGGTVTINCQASESISSRLAWYQQKPGQPPKLLIYGASTLASGVPSRFKGSGSGTEFTLTISDLECADAATYSCQEYLSDNTFGGGTEVVVKG
B2: 8H3/8K3 (antibody, V domains shown)
VH: B1 VH
VL: B1 VL
B3: 24H1/24K1 (antibody, V domains shown)
VH: QSLEESGGDLVKPGASLTLTCIGSGFDFSSNAIWWVRQAPGKGLEWIACLYGGTSGSTEYATWAKGRFTISKTSSTTVTLQMTSLTDADTATYYCAGGVVTWSYPRQLYLWGQGTLVTVSS
VL: DVVMTQTPASVSAVVGGTVTIKCQASQSISSWLSWYQQKLGQPPKLLIYSASTLASGVPSRFKGSGSGADYTLTISDLECADAATYYCQSNTAVHTYNFGGGTEVVVKG
B4: 14H1/14K1 (antibody, V domains shown)
VH: QSLEESGGDLVKPGAFLTLTCTASGFSFSGSDYMWWVRQAPGKGLEWIACIYGGYSGSTYYASWAKGRFTISKTSSTTVTLQMTRLTAADTAIYFCARDGGVTHFSHFDLWGQGTLVTVSS
VL: DVVMTQTPASVSEPVGGTVTIKCQASEDIYRLLAWYQQKPGQPPKLLIYGASTLASGVPSRFSGSGSGTEYTLTINDLECADAATYYCQYITYGSDVLTAFGGGTEVVVKG
B5: 9H3/9K2 (antibody, V domains shown)
VH: QSVKESEGGLFKPTDTLTLTCTVSGFSLNSYGVNWVRQAPGNGLEYIGTVGSSGSAYYASWAKSRSTITRNTNLNTVTLKMTSLTAADTATYFCARGLIATMSIWGQGTLVTVSS
VL: AQVLTQTASSVSAAVGGTVTISCQSSQSVHSNNYLAWYQQKPGQPPKQLIYLASTLASGVPSRFKGSGSGTQFTLTISDLECDDAATYYCAGGYSGMIFTFGGGTEVVVKG
B6: 15H1/15K3 (antibody, V domains shown)
VH: QSLEESGGDLVKPGASLTLTCTASGFSFSRSYYVCWVRQAPGKGLEWIVCIYGGSSDTTYYASWAKGRFTISKTSSTTVTLQLNSLTAADTATYFCARRDVSGGYDYGMDLWGQGTLVTVSS
VL: AYDMTQTPASVEVAVGGTVTIKCQASEDIESYLAWYQQKPGQPPKLLIYDASDLASGVPSRFKGSGSGTEYTLTISDLECDDAATYYCRQGYSSSNVDNVFGGGTEVVVKG

Target: T1, Human C-C motif chemokine 14 (CCL14) (human) (UniProt Q16627)
T1 sequence: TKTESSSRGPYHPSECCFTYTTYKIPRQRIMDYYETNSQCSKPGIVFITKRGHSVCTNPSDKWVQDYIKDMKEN
Experiment: sandwich ELISA; human CCL14 captured by antibody B, detection antibody read with goat anti-rabbit-HRP

binding, binds:
B1
B2
B3

Target: T1, Human C-C motif chemokine 14 (CCL14) (human)
Experiment: peptide array of CCL14-derived peptides; epitope identified from binding to the array

binding, binds:
B1
B2
B4
B3
B5
B6

Target: T1, Human C-C motif chemokine 14 (CCL14) (human)
Experiment: sandwich ELISA; human CCL14 captured by MAB3241, detection antibody read with goat anti-rabbit-HRP

binding, binds:
B1
B2
B4
B3

Target: T1, Human C-C motif chemokine 14 (CCL14) (human)
Experiment: sandwich ELISA; human CCL14 captured by antibody F, detection antibody read with goat anti-rabbit-HRP

binding, binds:
B1
B2
B3
